According to the supplement of paper PMC8728848:
This is one part of the list.

Legend:
Assay in all cases: glycan array binding signal (z-score within array); higher = stronger binding
Conditions in all cases: glycan notation: IUPAC condensed, linker removed
[1] = biological target: Fuc(a1-2)[Gal(a1-3)]Gal(b1-4)GlcNAc(b1-2)Man(a1-3)[Fuc(a1-2)[Gal(a1-3)]Gal(b1-4)GlcNAc(b1-2)Man(a1-6)]Man(b1-4)GlcNAc(b1-4)[Fuc(a1-6)]GlcNAc
Outline: (§1)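 Glycan array data were curated from 3228 arrays in the Consortium for Functional Glycomics database and kept only where the protein sequence was available. Glycan names were converted to IUPAC-condensed notation, and columns mapping to the same glycan were averaged. The binding signal is a within-array Z-score, averaged across arrays of the same protein sequence at different concentrations or buffers and across linkers. Negative Z-scores can be read as non-binding.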

[2] = biological target: Fuc(a1-2)[Gal(a1-3)]Gal(b1-4)GlcNAc(b1-3)GalNAc
Outline: as §1

[3] = biological target: Fuc(a1-2)[Gal(a1-3)]Gal(b1-4)GlcNAc(b1-3)[Fuc(a1-2)[Gal(a1-3)]Gal(b1-4)GlcNAc(b1-6)]GalNAc
Outline: as §1

[4] = biological target: Fuc(a1-2)[Gal(a1-3)]Gal(b1-4)GlcNAc(b1-6)GalNAc
Outline: as §1

[5] = biological target: Fuc(a1-2)[Gal(a1-3)]Gal(b1-4)[Fuc(a1-3)]Glc
Outline: as §1

[6] = biological target: Fuc(a1-2)[Gal(a1-3)]Gal(b1-4)[Fuc(a1-3)]GlcNAc
Outline: as §1

[7] = biological target: Fuc(a1-2)[Gal(a1-3)]Gal(b1-4)[Fuc(a1-3)]GlcNAc(b1-3)GalNAc
Outline: as §1

[8] = biological target: Fuc(a1-2)[Gal(a1-4)]Gal(b1-4)GlcNAc
Outline: as §1

[9] = biological target: Fuc(a1-2)[GalNAc(a1-3)]Gal
Outline: as §1

[10] = biological target: Fuc(a1-2)[GalNAc(a1-3)]Gal(b1-3)GalNAc(a1-3)[Fuc(a1-2)]Gal(b1-4)GlcNAc
Outline: as §1

[11] = biological target: Fuc(a1-2)[GalNAc(a1-3)]Gal(b1-3)GalNAc(b1-3)Gal(a1-4)Gal(b1-4)Glc
Outline: as §1

[12] = biological target: Fuc(a1-2)[GalNAc(a1-3)]Gal(b1-3)GlcNAc
Outline: as §1

[13] = biological target: Fuc(a1-2)[GalNAc(a1-3)]Gal(b1-3)GlcNAc(b1-2)Man(a1-3)[Fuc(a1-2)[GalNAc(a1-3)]Gal(b1-3)GlcNAc(b1-2)Man(a1-6)]Man(b1-4)GlcNAc(b1-4)GlcNAc
Outline: as §1

[14] = biological target: Fuc(a1-2)[GalNAc(a1-3)]Gal(b1-3)GlcNAc(b1-2)Man(a1-3)[Fuc(a1-2)[GalNAc(a1-3)]Gal(b1-3)GlcNAc(b1-2)Man(a1-6)]Man(b1-4)GlcNAc(b1-4)[Fuc(a1-6)]GlcNAc
Outline: as §1

[15] = biological target: Fuc(a1-2)[GalNAc(a1-3)]Gal(b1-3)GlcNAc(b1-3)GalNAc
Outline: as §1

[16] = biological target: Fuc(a1-2)[GalNAc(a1-3)]Gal(b1-3)GlcNAc(b1-6)GalNAc
Outline: as §1

[17] = biological target: Fuc(a1-2)[GalNAc(a1-3)]Gal(b1-4)Glc
Outline: as §1

[18] = biological target: Fuc(a1-2)[GalNAc(a1-3)]Gal(b1-4)GlcNAc
Outline: as §1

[19] = biological target: Fuc(a1-2)[GalNAc(a1-3)]Gal(b1-4)GlcNAc(b1-2)Man
Outline: as §1

[20] = biological target: Fuc(a1-2)[GalNAc(a1-3)]Gal(b1-4)GlcNAc(b1-2)Man(a1-3)[Fuc(a1-2)[GalNAc(a1-3)]Gal(b1-4)GlcNAc(b1-2)Man(a1-6)]Man(b1-4)GlcNAc(b1-4)GlcNAc
Outline: as §1

[21] = biological target: Fuc(a1-2)[GalNAc(a1-3)]Gal(b1-4)GlcNAc(b1-2)Man(a1-3)[Fuc(a1-2)[GalNAc(a1-3)]Gal(b1-4)GlcNAc(b1-2)Man(a1-6)]Man(b1-4)GlcNAc(b1-4)[Fuc(a1-6)]GlcNAc
Outline: as §1

[22] = biological target: Fuc(a1-2)[GalNAc(a1-3)]Gal(b1-4)GlcNAc(b1-3)Gal(b1-4)GlcNAc
Outline: as §1

[23] = biological target: Fuc(a1-2)[GalNAc(a1-3)]Gal(b1-4)GlcNAc(b1-3)Gal(b1-4)GlcNAc(b1-3)Gal(b1-4)GlcNAc
Outline: as §1

[24] = biological target: Fuc(a1-2)[GalNAc(a1-3)]Gal(b1-4)GlcNAc(b1-3)GalNAc
Outline: as §1

[25] = biological target: Fuc(a1-2)[GalNAc(a1-3)]Gal(b1-4)GlcNAc(b1-3)[Fuc(a1-2)[GalNAc(a1-3)]Gal(b1-4)GlcNAc(b1-6)]GalNAc
Outline: as §1

[26] = biological target: Fuc(a1-2)[GalNAc(a1-3)]Gal(b1-4)GlcNAc(b1-6)GalNAc
Outline: as §1

[27] = biological target: Fuc(a1-2)[GalNAc(a1-3)]Gal(b1-4)[Fuc(a1-3)]GlcNAc
Outline: as §1

[28] = biological target: Fuc(a1-2)[GalNAc(a1-3)]Gal(b1-4)[Fuc(a1-3)]GlcNAc(b1-3)GalNAc
Outline: as §1

[29] = biological target: Fuc(a1-2)[GalNAc(a1-4)]Gal(b1-4)GlcNAc
Outline: as §1

[30] = biological target: Fuc(a1-2)[GalNAc(b1-3)]Gal
Outline: as §1

[31] = biological target: Fuc(a1-3)GlcNAc
Outline: as §1

[32] = biological target: Fuc(a1-3)[Gal(b1-4)]Glc6S
Outline: as §1

[33] = biological target: Fuc(a1-3)[Gal(b1-4)]GlcNAc
Outline: as §1

[34] = biological target: Fuc(a1-3)[Gal(b1-4)]GlcNAc(b1-2)Man
Outline: as §1

[35] = biological target: Fuc(a1-3)[Gal(b1-4)]GlcNAc(b1-2)Man(a1-3)[Fuc(a1-3)[Gal(b1-4)]GlcNAc(b1-2)Man(a1-6)]Man(b1-4)GlcNAc(b1-4)GlcNAc
Outline: as §1

[36] = biological target: Fuc(a1-3)[Gal(b1-4)]GlcNAc(b1-2)Man(a1-3)[Fuc(a1-3)[Gal(b1-4)]GlcNAc(b1-2)Man(a1-6)]Man(b1-4)GlcNAc(b1-4)[Fuc(a1-6)]GlcNAc
Outline: as §1

[37] = biological target: Fuc(a1-3)[Gal(b1-4)]GlcNAc(b1-3)Gal(b1-3)[Fuc(a1-4)]GlcNAc
Outline: as §1

B1: PX14343I-pdi-501-30-501 (Parabacteroides distasonis) (protein)
chain: SDQYSTETFWKTKEHASAGIMGCYNALKLWRSLHTMEFDMLTANAMPYNEANGTQAIGKGEHLSTTALIGSLWKNCYVGIGRTNTFIANVGGVDMDESEKAKMVGEAKFLRAFYYLSLVDKFGGVPLIIDAPNADEQAELPRNSKEEVVNQIVKDLEEAAAVLPDTYASSDLGRATKGAALALKARTLLYNSRWAEAAQAAKQVMESGVYQLFNDYRHFFSEDNKYNCEVIFDIEAKLPEYPTDYDQNIWRLNRPAPLKELVDTYLCVDGKTIEESPLYDPTRPYENRDPRLLKSIVCIGYPYLGKTITKEDVATTGFGVKKYTSYEDDVTIPLVERSAFNFILIRYAEVLLTYAEAQNEASGPDQSVYDAINQLRRRPDINMPEVPKGLTKDQMREVIRRERRIELTFEGLYYSDILRWKTAEKENNGMMHNYEGIEVVKRSFNPKRDYLWPIPYNQTVLNPNLEQNPNWD
B1 was tested. Which “glycan array binding signal (z-score)” value [1] did it give?
Its value is 0.866.

What about the “glycan array binding signal (z-score)” value [2] of the same binder?
Its value is 0.362.

And the “glycan array binding signal (z-score)” value [3]?
The value was -0.551.

What about the “glycan array binding signal (z-score)” value [4] of the same binder?
The value was -0.088.

What about the “glycan array binding signal (z-score)” value [5] of the same binder?
Its value is -0.322.

And the “glycan array binding signal (z-score)” value [6]?
The value was 0.018.

What about the “glycan array binding signal (z-score)” value [7] of the same binder?
The value was -0.205.

And the “glycan array binding signal (z-score)” value [8]?
Its value is -0.398.

What about the “glycan array binding signal (z-score)” value [9] of the same binder?
The value was -0.237.

What about the “glycan array binding signal (z-score)” value [10] of the same binder?
Its value is -0.036.

And the “glycan array binding signal (z-score)” value [11]?
The value was -0.085.

What about the “glycan array binding signal (z-score)” value [12] of the same binder?
The value was 0.35.

And the “glycan array binding signal (z-score)” value [13]?
Its value is -0.277.

And the “glycan array binding signal (z-score)” value [14]?
Its value is -0.505.

And the “glycan array binding signal (z-score)” value [15]?
Its value is 0.161.

What about the “glycan array binding signal (z-score)” value [16] of the same binder?
Its value is 0.502.

What about the “glycan array binding signal (z-score)” value [17] of the same binder?
Its value is 0.669.

And the “glycan array binding signal (z-score)” value [18]?
Its value is -0.707.

What about the “glycan array binding signal (z-score)” value [19] of the same binder?
Its value is -0.767.

What about the “glycan array binding signal (z-score)” value [20] of the same binder?
The value was 0.835.

What about the “glycan array binding signal (z-score)” value [21] of the same binder?
The value was -0.589.

What about the “glycan array binding signal (z-score)” value [22] of the same binder?
The value was -0.547.

And the “glycan array binding signal (z-score)” value [23]?
The value was 0.571.

What about the “glycan array binding signal (z-score)” value [24] of the same binder?
Its value is -0.313.

And the “glycan array binding signal (z-score)” value [25]?
The value was 0.856.

What about the “glycan array binding signal (z-score)” value [26] of the same binder?
Its value is -0.434.

What about the “glycan array binding signal (z-score)” value [27] of the same binder?
Its value is -0.393.

And the “glycan array binding signal (z-score)” value [28]?
Its value is 0.679.

What about the “glycan array binding signal (z-score)” value [29] of the same binder?
Its value is -0.33.

What about the “glycan array binding signal (z-score)” value [30] of the same binder?
The value was -0.899.

What about the “glycan array binding signal (z-score)” value [31] of the same binder?
The value was -0.254.

What about the “glycan array binding signal (z-score)” value [32] of the same binder?
Its value is 1.06.

What about the “glycan array binding signal (z-score)” value [33] of the same binder?
Its value is -0.452.

And the “glycan array binding signal (z-score)” value [34]?
The value was 0.571.

What about the “glycan array binding signal (z-score)” value [35] of the same binder?
The value was 1.25.

And the “glycan array binding signal (z-score)” value [36]?
The value was 0.555.

And the “glycan array binding signal (z-score)” value [37]?
The value was 0.052.
